{"source": "patent US20240344077A1", "key": {"[1]": {"target": "Lotus japonicus NFR1 intracellular domain (residues 263-623) (Lotus japonicus)", "assay": "native PAGE of purified intracellular domain; self-association inferred from ladder pattern"}, "[2]": {"target": "Chimera A, intracellular part (JM of NFR1, kinase domain of CERK6) (Lotus japonicus)", "assay": "native PAGE of purified intracellular part; self-association inferred from ladder pattern (same pattern as NFR1)"}, "[3]": {"target": "Chimera B, intracellular part (JM of CERK6, kinase domain of NFR1) (Lotus japonicus)", "assay": "native PAGE of purified intracellular part; self-association inferred from ladder pattern (same pattern as CERK6)"}, "[4]": {"target": "Chimera C, intracellular part (JM zones 2 and 3 of NFR1, JM zone 4 and kinase domain of CERK6) (Lotus japonicus)", "assay": "native PAGE of purified intracellular part; self-association inferred from ladder pattern (same pattern as NFR1)"}, "[5]": {"target": "Chimera D, intracellular part (JM zones 2 and 3 of CERK6, JM zone 4 of NFR1, kinase domain of CERK6) (Lotus japonicus)", "assay": "native PAGE of purified intracellular part; self-association inferred from ladder pattern (to some extent the same pattern as CERK6)"}, "[6]": {"target": "Lotus japonicus NFR1 (residues 263-623) D462N (Lotus japonicus)", "assay": "native PAGE of purified intracellular domain; self-association inferred from ladder pattern (lane named only in the legend of FIG. 15F)"}}, "note": "These are yes or no findings as the source states them, for the method shown. Some binding calls cover weakened binding; strength is not graded here.", "data": [{"binder": "Lotus japonicus NFR1 intracellular domain (residues 263-623) (receptor) AKLPTDISMALSTQDGNASSSAEYETSGSSGPGTASATGLTSIMVAKSMEFSYQELAKATNNFSLDNKIGQGGFGAVYYAELRGKKTAIKKMDVQASTEFLCELKVLTHVHHLNLVRLIGYCVEGSLFLVYEHIDNGNLGQYLHGSGKEPLPWSSRVQIALDAARGLEYIHEHTVPVYIHRDVKSANILIDKNLRGKVADFGLTKLIEVGNSTLQTRLVGTFGYMPPEYAQYGDISPKIDVYAFGVVLFELISAKNAVLKTGELVAESKGLVALFEEALNKSDPCDALRKLVDPRLGENYPIDSVLKIAQLGRACTRDNPLLRPSMRSLVVALMTLSSLTEDCDDESSYESQTLINLLSVR", "values": [{"measurement": "binding", "setting": "[1]", "value": "binds"}]}, {"binder": "Chimera A, intracellular part (JM of NFR1, kinase domain of CERK6) (receptor) QKKEEEKAKLPTDISMALSTQDGNASSSAEYETSGSSGPGTASATGLTSIMVAKSMEFSYQELAKATNNFSLANKIGQGGFGSVYYAELRGERAAIKKMDMQASKEFLAELKVLTRVHHLNLVRLIGYSIEGSLFLVYEFIENGNLSQHLRGSGRDPLPWATRVQIALDSARGLEYIHEHTVPVYIHRDIKSANILIDKNYRGKVADFGLTKLTEVGSSSLPTGRLVGTFGYMPPEYAQYGDVSPKVDVYAFGVVLYELISAKDAIVKTSESITDSKGLVALFEGVLSQPDPTEDLRKLVDQRLGDNYPVDSVRKMAQLAKACTQDNPQLRPSMRSIVVALMTLSSTTDDWDVGSFYENQNLVNLMSGR", "values": [{"measurement": "binding", "setting": "[2]", "value": "binds"}]}, {"binder": "Chimera B, intracellular part (JM of CERK6, kinase domain of NFR1) (receptor) FRKKRIQKEELLSQETRAIFPQDGKDENPRSTVNETPGPGGPAAMAGITVDKSVEFSYDELATATDNFSLDNKIGQGGFGAVYYAELRGKKTAIKKMDVQASTEFLCELKVLTHVHHLNLVRLIGYCVEGSLFLVYEHIDNGNLGQYLHGSGKEPLPWSSRVQIALDAARGLEYIHEHTVPVYIHRDVKSANILIDKNLRGKVADFGLTKLIEVGNSTLQTRLVGTFGYMPPEYAQYGDISPKIDVYAFGVVLFELISAKNAVLKTGELVAESKGLVALFEEALNKSDPCDALRKLVDPRLGENYPIDSVLKIAQLGRACTRDNPLLRPSMRSLVVALMTLSSLTEDCDDESSYESQTLINLLSVR", "values": [{"measurement": "binding", "setting": "[3]", "value": "binds"}]}, {"binder": "Chimera C, intracellular part (JM zones 2 and 3 of NFR1, JM zone 4 and kinase domain of CERK6) (receptor) QKKEEEKAKLPTDISMALSTQDGNASSSAEYETSGSSGPGTASATGLTSITVDKSVEFSYDELATATDNFSLANKIGQGGFGSVYYAELRGERAAIKKMDMQASKEFLAELKVLTRVHHLNLVRLIGYSIEGSLFLVYEFIENGNLSQHLRGSGRDPLPWATRVQIALDSARGLEYIHEHTVPVYIHRDIKSANILIDKNYRGKVADFGLTKLTEVGSSSLPTGRLVGTFGYMPPEYAQYGDVSPKVDVYAFGVVLYELISAKDAIVKTSESITDSKGLVALFEGVLSQPDPTEDLRKLVDQRLGDNYPVDSVRKMAQLAKACTQDNPQLRPSMRSIVVALMTLSSTTDDWDVGSFYENQNLVNLMSGR", "values": [{"measurement": "binding", "setting": "[4]", "value": "binds"}]}, {"binder": "Chimera D, intracellular part (JM zones 2 and 3 of CERK6, JM zone 4 of NFR1, kinase domain of CERK6) (receptor) FRKKRIQKEELLSQETRAIFPQDGKDENPRSTVNETPGPGGPAAMAGIMVAKSMEFSYQELAKATNNFSLANKIGQGGFGSVYYAELRGERAAIKKMDMQASKEFLAELKVLTRVHHLNLVRLIGYSIEGSLFLVYEFIENGNLSQHLRGSGRDPLPWATRVQIALDSARGLEYIHEHTVPVYIHRDIKSANILIDKNYRGKVADFGLTKLTEVGSSSLPTGRLVGTFGYMPPEYAQYGDVSPKVDVYAFGVVLYELISAKDAIVKTSESITDSKGLVALFEGVLSQPDPTEDLRKLVDQRLGDNYPVDSVRKMAQLAKACTQDNPQLRPSMRSIVVALMTLSSTTDDWDVGSFYENQNLVNLMSGR", "values": [{"measurement": "binding", "setting": "[5]", "value": "binds"}]}, {"binder": "Lotus japonicus NFR1 (residues 263-623) D462N (receptor) AKLPTDISMALSTQDGNASSSAEYETSGSSGPGTASATGLTSIMVAKSMEFSYQELAKATNNFSLDNKIGQGGFGAVYYAELRGKKTAIKKMDVQASTEFLCELKVLTHVHHLNLVRLIGYCVEGSLFLVYEHIDNGNLGQYLHGSGKEPLPWSSRVQIALDAARGLEYIHEHTVPVYIHRDVKSANILIDKNLRGKVANFGLTKLIEVGNSTLQTRLVGTFGYMPPEYAQYGDISPKIDVYAFGVVLFELISAKNAVLKTGELVAESKGLVALFEEALNKSDPCDALRKLVDPRLGENYPIDSVLKIAQLGRACTRDNPLLRPSMRSLVVALMTLSSLTEDCDDESSYESQTLINLLSVR", "values": [{"measurement": "binding", "setting": "[6]", "value": "binds"}]}]}
